The supplement of paper PMC8728848
This is one part of the list.

Columns and labels:
Assay in all cases: glycan array binding signal (z-score within array); higher = stronger binding
Conditions in all cases: glycan notation: IUPAC condensed, linker removed
[1] = biological target: Man(a1-2)Man(a1-6)[Man(a1-3)]Man(a1-6)[Man(a1-2)Man(a1-2)Man(a1-3)]Man(b1-4)GlcNAc(b1-4)GlcNAc
Summary of the method: (§1)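 Negative Z-scores can be read as non-binding. The Z-score is calculated within each array and then averaged across arrays of one protein sequence at different concentrations or buffers and across linkers. Arrays, 3228 in all, were curated from the Consortium for Functional Glycomics database and kept only where the protein sequence was available.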

Man(a1-3)[Man(a1-6)]Man = biological target: Man(a1-3)[Man(a1-6)]Man
Summary of the method: as §1

[2] = biological target: Man(a1-3)[Man(a1-6)]Man(a1-6)[Man(a1-2)Man(a1-3)]Man(b1-4)GlcNAc(b1-4)GlcNAc
Summary of the method: as §1

[3] = biological target: Man(a1-3)[Man(a1-6)]Man(a1-6)[Man(a1-3)]Man
Summary of the method: as §1

[4] = biological target: Man(a1-3)[Man(a1-6)]Man(a1-6)[Man(a1-3)]Man(b1-4)GlcNAc(b1-4)GlcNAc
Summary of the method: as §1

[5] = biological target: Man(a1-3)[Man(a1-6)]Man(b1-4)GlcNAc(b1-4)GlcNAc
Summary of the method: as §1

Man(a1-6)Man = biological target: Man(a1-6)Man
Summary of the method: as §1

Man(b1-4)GlcNAc = biological target: Man(b1-4)GlcNAc
Summary of the method: as §1

Neu5Ac(a2-3)Gal = biological target: Neu5Ac(a2-3)Gal
Summary of the method: as §1

[6] = biological target: Neu5Ac(a2-3)Gal(b1-3)GalNAc
Summary of the method: as §1

[7] = biological target: Neu5Ac(a2-3)Gal(b1-3)GalNAc(b1-3)Gal(a1-4)Gal(b1-4)Glc
Summary of the method: as §1

[8] = biological target: Neu5Ac(a2-3)Gal(b1-3)GalNAc(b1-4)[Neu5Ac(a2-3)]Gal(b1-4)Glc
Summary of the method: as §1

[9] = biological target: Neu5Ac(a2-3)Gal(b1-3)GalNAc6S
Summary of the method: as §1

[10] = biological target: Neu5Ac(a2-3)Gal(b1-3)GlcNAc
Summary of the method: as §1

[11] = biological target: Neu5Ac(a2-3)Gal(b1-3)GlcNAc(b1-2)Man(a1-3)[Neu5Ac(a2-3)Gal(b1-3)GlcNAc(b1-2)Man(a1-6)]Man(b1-4)GlcNAc(b1-4)GlcNAc
Summary of the method: as §1

[12] = biological target: Neu5Ac(a2-3)Gal(b1-3)GlcNAc(b1-3)Gal(b1-3)GlcNAc
Summary of the method: as §1

[13] = biological target: Neu5Ac(a2-3)Gal(b1-3)GlcNAc(b1-3)Gal(b1-4)GlcNAc
Summary of the method: as §1

[14] = biological target: Neu5Ac(a2-3)Gal(b1-3)GlcNAc(b1-3)GalNAc
Summary of the method: as §1

[15] = biological target: Neu5Ac(a2-3)Gal(b1-3)GlcNAc6S
Summary of the method: as §1

[16] = biological target: Neu5Ac(a2-3)Gal(b1-3)[Fuc(a1-4)]GlcNAc
Summary of the method: as §1

[17] = biological target: Neu5Ac(a2-3)Gal(b1-3)[Fuc(a1-4)]GlcNAc(b1-3)Gal(b1-3)[Fuc(a1-4)]GlcNAc
Summary of the method: as §1

[18] = biological target: Neu5Ac(a2-3)Gal(b1-3)[Fuc(a1-4)]GlcNAc(b1-3)Gal(b1-4)[Fuc(a1-3)]GlcNAc
Summary of the method: as §1

[19] = biological target: Neu5Ac(a2-3)Gal(b1-3)[Neu5Ac(a2-3)Gal(b1-4)]GlcNAc
Summary of the method: as §1

[20] = biological target: Neu5Ac(a2-3)Gal(b1-3)[Neu5Ac(a2-6)]GalNAc
Summary of the method: as §1

Neu5Ac(a2-3)Gal(b1-4)Glc = biological target: Neu5Ac(a2-3)Gal(b1-4)Glc
Summary of the method: as §1

[21] = biological target: Neu5Ac(a2-3)Gal(b1-4)GlcNAc
Summary of the method: as §1

[22] = biological target: Neu5Ac(a2-3)Gal(b1-4)GlcNAc(b1-2)Man(a1-3)[GlcNAc(b1-2)Man(b1-4)GlcNAc(b1-2)Man(a1-6)]Man(b1-4)GlcNAc(b1-4)GlcNAc
Summary of the method: as §1

[23] = biological target: Neu5Ac(a2-3)Gal(b1-4)GlcNAc(b1-2)Man(a1-3)[Neu5Ac(a2-6)Gal(b1-4)GlcNAc(b1-2)Man(a1-6)]Man(b1-4)GlcNAc(b1-4)GlcNAc
Summary of the method: as §1

[24] = biological target: Neu5Ac(a2-3)Gal(b1-4)GlcNAc(b1-3)Gal(b1-3)GlcNAc
Summary of the method: as §1

[25] = biological target: Neu5Ac(a2-3)Gal(b1-4)GlcNAc(b1-3)Gal(b1-4)GlcNAc
Summary of the method: as §1

[26] = biological target: Neu5Ac(a2-3)Gal(b1-4)GlcNAc(b1-3)Gal(b1-4)GlcNAc(b1-3)Gal(b1-4)GlcNAc
Summary of the method: as §1

[27] = biological target: Neu5Ac(a2-3)Gal(b1-4)GlcNAc(b1-3)Gal(b1-4)[Fuc(a1-3)]GlcNAc
Summary of the method: as §1

[28] = biological target: Neu5Ac(a2-3)Gal(b1-4)GlcNAc(b1-3)GalNAc
Summary of the method: as §1

[29] = biological target: Neu5Ac(a2-3)Gal(b1-4)GlcNAc(b1-6)[Gal(b1-3)]GalNAc
Summary of the method: as §1

[30] = biological target: Neu5Ac(a2-3)Gal(b1-4)GlcNAc(b1-6)[Neu5Ac(a2-3)Gal(b1-3)]GalNAc
Summary of the method: as §1

[31] = biological target: Neu5Ac(a2-3)Gal(b1-4)GlcNAc6S
Summary of the method: as §1

[32] = biological target: Neu5Ac(a2-3)Gal(b1-4)[Fuc(a1-3)]GlcNAc
Summary of the method: as §1

B1: PEB1 (Campylobacter jejuni), Q0P9X8 (protein)
chain: MVFRKSLLKLAVFALGACVAFSNANAAEGKLESIKSKGQLIVGVKNDVPHYALLDQATGEIKGFEVDVAKLLAKSILGDDKKIKLVAVNAKTRGPLLDNGSVDAVIATFTITPERKRIYNFSEPYYQDAIGLLVLKEKKYKSLADMKGANIGVAQAATTKKAIGEAAKKIGIDVKFSEFPDYPSIKAALDAKRVDAFSVDKSILLGYVDDKSEILPDSFEPQSYGIVTKKDDPAFAKYVDDFVKEHKNEIDALAKKWGL
[1]
  glycan array binding signal (z-score): -0.931
Man(a1-3)[Man(a1-6)]Man
  glycan array binding signal (z-score): -0.323
[2]
  glycan array binding signal (z-score): 0.547
[3]
  glycan array binding signal (z-score): -1.84
[4]
  glycan array binding signal (z-score): -0.897
[5]
  glycan array binding signal (z-score): -0.447
Man(a1-6)Man
  glycan array binding signal (z-score): -0.896
Man(b1-4)GlcNAc
  glycan array binding signal (z-score): -0.146
Neu5Ac(a2-3)Gal
  glycan array binding signal (z-score): -1.12
[6]
  glycan array binding signal (z-score): -0.429
[7]
  glycan array binding signal (z-score): -0.602
[8]
  glycan array binding signal (z-score): 0.062
[9]
  glycan array binding signal (z-score): -0.567
[10]
  glycan array binding signal (z-score): 0.077
[11]
  glycan array binding signal (z-score): -0.331
[12]
  glycan array binding signal (z-score): 0.396
[13]
  glycan array binding signal (z-score): -0.813
[14]
  glycan array binding signal (z-score): -0.289
[15]
  glycan array binding signal (z-score): -1.25
[16]
  glycan array binding signal (z-score): -1.17
[17]
  glycan array binding signal (z-score): 0.714
[18]
  glycan array binding signal (z-score): 0.311
[19]
  glycan array binding signal (z-score): -0.138
[20]
  glycan array binding signal (z-score): 0.792
Neu5Ac(a2-3)Gal(b1-4)Glc
  glycan array binding signal (z-score): -0.754
[21]
  glycan array binding signal (z-score): -0.717
[22]
  glycan array binding signal (z-score): 1.14
[23]
  glycan array binding signal (z-score): 0.159
[24]
  glycan array binding signal (z-score): -1.47
[25]
  glycan array binding signal (z-score): 0.401
[26]
  glycan array binding signal (z-score): -0.364
[27]
  glycan array binding signal (z-score): -0.941
[28]
  glycan array binding signal (z-score): -0.182
[29]
  glycan array binding signal (z-score): -0.101
[30]
  glycan array binding signal (z-score): 0.229
[31]
  glycan array binding signal (z-score): -0.243
[32]
  glycan array binding signal (z-score): 0.017
